Literature values in patent US20060068015A1, “Solid dosage form comprising a fibrate and a statin” (priority 2003, published 2006).

CC(C)c1c(C(=O)Nc2ccccc2)c(-c2ccccc2)c(-c2ccc(F)cc2)n1CC[C@@H](O)C[C@@H](O)CC(=O)O [Atorvastatin]
plasma concentrations lower (Cmax and AUC) following evening compared with morning administration (evening vs morning): approximately 30% | food decreases the extent of drug absorption, as assessed by AUC (with food): ~9% | food decreases the rate of drug absorption, as assessed by Cmax (with food): approximately 25%
